The source of these data is PubChem BioAssay AID1347426 (Functional Genomics Laboratory (NCATS/FGL), 2020).

The whole screen tested about 31,000 sequences, of which about 1,400 (4.5%) were called active.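 The calls were made as follows: active = median seed-adjusted z-score above 1 or below -1; inactive = the rest.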 Some of the results follow.

The nature of this assay: Novel Modifiers of Survival Motor Neuron (SMN) Protein: Gene Identification via Genome-wide siRNA Screen. To be noted: HEK293T SMN2-luciferase reporter, siRNA knockdown, 72 h; actives lie on both sides. From the text:
Spinal muscular atrophy (SMA) is the most common neuromuscular autosomal recessive disorder and one of the leading genetic causes of infant death. SMA results from mutations inducing loss of function or deletion in the survival of motor neuron-1 gene (SMN1), leading to deficiency of the survival motor neuron (SMN) protein. Although a second nearly identical gene, SMN2, is retained in humans, its expression primarily produces an aberrantly spliced isoform that is largely unstable and quickly degraded. We performed a genome-wide RNAi screen using a cell-based reporter assay to identify genes and pathways that modulate SMN protein stability. The screen identified over 200 genes that led to the greatest increase or decrease in luciferase expression.
Using HEK293T cells stably expressing a luciferase reporter that combines the promoter and splicing based cassettes in tandem with the major portion of the native SMN2 cDNA with luciferase, we performed a genome-wide RNAi screen to identify modulators of SMN protein levels. Luciferase is expressed when full-length SMN protein is generated with luminescence signal proportional to SMN protein levels. Our luciferase-based reporter assay was used to screen Ambion Silencer Select Human Druggable Genome siRNA library (10418 genes, 3 unique siRNAs per gene) using lipid-based reverse transfection.
Briefly, 1 pmol of each siRNA was spotted to a well of a 384-well plate (Corning, Corning, NY) and 20 microL of serum-free DMEM containing […] of Lipofectamine RNAiMax (Life Technologies, Carlsbad, CA) was then added to each well. Transfected cells were maintained at 37 degrees C in 5% CO2 for 72 hours, 20 microL of ONE-Glo Reagent (Promega) was added to wells for luciferase quantification. Raw luminescence reads were normalized to Ambion(R) Silencer(R) Negative Control #2 siRNA, then log10 transformed. A robust statistical measure of median absolute deviation (MAD) to standardize siRNA activities from each screen. Common Seed Analysis was used to help prioritize clean hits as opposed to those appearing to arise from seed based off-target effects. Candidate modulators were defined as the genes having a MAD score greater than 1.0 or less than -1.0.
On the technique in general: A reporter such as luciferase makes a cellular process visible.
Turning to GAUUCACGCCUUAUACAAATT against KLRA1, the median seed-adjusted z-score is inactive: 0.918.
The result for GGACAAAAGAGAGGACAUATT against ZNF626 reads inactive: 0.185; that for GGAGAGCGACCAUCUUUAATT against PFKFB4, inactive: 0.149; that for AGUGAGACUGUACCUCUAATT against ATAD3C, inactive: -0.535.
As to CGGUCCCUGUACUCAGAAATT against TRAP1, the median seed-adjusted z-score is inactive: -0.637.
Consider CCAAUGCCCAGAUUAUGUATT against CELSR2, for which the median seed-adjusted z-score was inactive: -0.493.
With GCCUGUCCCAGACCAUUGATT against KLC4 the figure was inactive: 0; with GGUUUUCGCUCAGACUACATT against ENPP6, inactive: -0.548.
Regarding GCAUCACGAUGAUUGAGUUTT against MAP2K6, the median seed-adjusted z-score was inactive: -0.889.
In the case of GAGUUGAACCUGCGCAUGATT against KRT14, the median seed-adjusted z-score is inactive: -0.127.
GUCUGAGGCCUUUAUCUUATT against RHOQ: the median seed-adjusted z-score is inactive: -0.328.
In the case of CGGGAGCUCCUACAUCUAUTT against PSMB6, the median seed-adjusted z-score is inactive: -0.579.
Regarding GCUAAGAAGAGAUAAUGAATT against MLKL, the median seed-adjusted z-score was inactive: 0.
The result for GGAUGAAUUGACUCAAGUATT against AKAP14 reads inactive: 0.136.
With GAUAAUGAGUUGUUAUACATT against EDEM1 the figure was inactive: -0.175; with GUCCUUUAACUGAAGCUUUTT against NDUFB9, inactive: -0.982.
With ACCAUAAUCUAAAAGGCCATT against GOLGA2L1 the figure was inactive: 0.487; with GGCACUUAUUAUGAGGCUATT against SOD1, inactive: -0.8; with CACUGAGUUCUCUAUAUUUTT against CERK, inactive: 0.
On to GAGUUGUUCUAUGAUGUGATT against PDILT, for which the median seed-adjusted z-score is inactive: -0.0994.
As to GGAGUUUCAUUACAGCCGUTT against CDX1, the median seed-adjusted z-score is inactive: 0.
Regarding GGAAUACAUCUAUUGCCUUTT against CNGA2, the median seed-adjusted z-score was inactive: -0.0447.
Take GCACAGAACUCAACGCUGATT against COX4I2: the median seed-adjusted z-score is inactive: -0.0202.
The result for GCCGUUCCAGUGUGAGUUUTT against ZIC2 reads inactive: -0.162.
The result for GGACUAUGAAGAUUUUAAATT against APOBEC3C reads inactive: -0.103.
As for CAAAGGUUAUUCUGCAUAUTT against CTSO, the median seed-adjusted z-score was inactive: 0.322.
Take GCCUUUAGAUCUUCUAGUUTT against ZNF136: the median seed-adjusted z-score was inactive: 0.229.
As for AGUGUUAAAUCAGAUGUUATT against PRDM9, the median seed-adjusted z-score is inactive: -0.15.
Turning to CGAGUACCAUCAGGAGAGATT against ZNF219, the median seed-adjusted z-score was inactive: 0.127.
Consider CCCGGAGAAUUCUCAAUGATT against NENF, for which the median seed-adjusted z-score was inactive: -0.778.
